Source: the supplement of paper PMC12823440, “Inhibitors supercharge kinase turnover through native proteolytic circuits” (Nature, 2025)
Counter-ions that a name gives are not always drawn. The list shows a part of the results. The calls rarely recur for the same compound in another form.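 Kinases were expressed as nanoluciferase fusions in K562 cells and luminescence was read every 4 h between 2 and 18 h as percent of control, DMSO set to 100% and a positive control to 0%. A time point counts as decreased when the signal drops significantly (2 sigma). The hit call is the authors' own, does not follow from the count of time points alone, and its rule is not shown.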

By UniProt entry, the sequences of proteins in these tests, tags left out. Where a name states a change or a piece, a line headed by the entry shows the natural chain unless it says otherwise.
UniProt P31749: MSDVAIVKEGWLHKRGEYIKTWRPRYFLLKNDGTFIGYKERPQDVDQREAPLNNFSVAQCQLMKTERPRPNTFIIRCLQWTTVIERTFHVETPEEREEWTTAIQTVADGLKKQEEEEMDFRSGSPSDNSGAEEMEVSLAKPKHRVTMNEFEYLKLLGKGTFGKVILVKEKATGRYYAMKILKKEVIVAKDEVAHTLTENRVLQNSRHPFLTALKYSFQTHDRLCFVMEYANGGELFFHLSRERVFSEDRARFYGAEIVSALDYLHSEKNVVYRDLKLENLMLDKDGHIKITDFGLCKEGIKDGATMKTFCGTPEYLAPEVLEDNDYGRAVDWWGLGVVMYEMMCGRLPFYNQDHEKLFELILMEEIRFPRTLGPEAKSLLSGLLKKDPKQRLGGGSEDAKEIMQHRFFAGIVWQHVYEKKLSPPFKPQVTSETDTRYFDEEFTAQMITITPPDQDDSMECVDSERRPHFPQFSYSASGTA

The molecules below were run against AKT1 (UniProt P31749) (assay: number of time points (of 5) at which kinase-Nluc abundance scored as decreased, DMSO-normalised (count); higher = more persistent destabilization). Details: K562; 2-18 h.

Compound | number of time points
CN1CC[C@@H](c2c(O)cc(O)c3c(=O)cc(-c4ccc(C(F)(F)F)cc4Cl)oc23)[C@@H]1CO [Voruciclib (hydrochloride)] (10 µM) | 0
O=c1cc(-c2cccc3c2Sc2ccccc2S3)oc(N2CCOCC2)c1 (10 µM) | 0
O=[N+]([O-])c1ccc(Nc2nc(N3CCOCC3)nc(N3CCOCC3)n2)cc1 (10 µM) | 0
c1ccc(-c2nc(=NCCN3CCOCC3)sn2-c2ccccc2)cc1 [VP3.15 (dihydrobromide)] (10 µM) | 0
Nc1nc(N)c2nc(-c3cccc(O)c3)cnc2n1 (10 µM) | 0
Nc1ncnc2c1c(-c1ccc(Oc3ccccc3)cc1)nn2C1CCN(CCOCCOCCOc2ccc3c(c2)CN(C2CCC(=O)NC2=O)C3=O)CC1 (stereo not drawn) (2.5 µM) | 0
C=CC(=O)N1C[C@H](COc2nc(Nc3cnn(C)c3)nc3[nH]cc(Cl)c23)[C@@H](OC)C1 (2.5 µM) | 0
Cc1nn(C)c2c1C(c1ccc(C(F)(F)F)cc1)C(C#N)=C(N)O2 (stereo not drawn) (10 µM) | 0
O=C(NC1CCOCC1)c1ccc(-c2cc(-c3c[nH]nc3-c3ccccn3)ccn2)cc1 (10 µM) | 0
CC/C(=N\NC(=O)c1ccnc(NCCCN2CCOCC2)c1)c1ccc(Cl)cc1O (2.5 µM) | 0
COc1cc(N2CCOCC2)ccc1Nc1ncc(Cl)c(Nc2ccccc2NS(C)(=O)=O)n1 (2.5 µM) | 0
Cn1cnc([N+](=O)[O-])c1C[N+](C)(C)C/C=C/C(=O)Nc1cc2c(Nc3ccc(Cl)c(Br)c3)ncnc2cn1 [Tarloxotinib (bromide)] (10 µM) | 0
O=C(Nc1cccc(C(F)(F)F)c1)c1cccc2cc(Oc3cc(CO)ncn3)ccc12 (10 µM) | 0
Oc1ccc(/C=C/c2cc(O)cc(O)c2)cc1 [Resveratrol] (10 µM) | 0
O=c1[nH]c(C2CCCN2)nc2c1oc1ccc(Cl)cc12 (stereo not drawn) [XL413 (hydrochloride)] (10 µM) | 0
CN(c1ccc(NC(=O)Nc2ccc(OC(F)(F)F)cc2)cc1)c1ccnc(Nc2cccc(S(N)(=O)=O)c2)n1 (2.5 µM) | 0
C=C[C@@](C)(/C=C/c1ccc(O)cc1)CCC=C(C)C [Bakuchiol] (10 µM) | 0

A stretch of the results above, for reference:
Compound | number of time points
C=CC(=O)N1C[C@H](COc2nc(Nc3cnn(C)c3)nc3[nH]cc(Cl)c23)[C@@H](OC)C1 (2.5 µM) | 0
Cc1nn(C)c2c1C(c1ccc(C(F)(F)F)cc1)C(C#N)=C(N)O2 (stereo not drawn) (10 µM) | 0
O=C(NC1CCOCC1)c1ccc(-c2cc(-c3c[nH]nc3-c3ccccn3)ccn2)cc1 (10 µM) | 0
CC/C(=N\NC(=O)c1ccnc(NCCCN2CCOCC2)c1)c1ccc(Cl)cc1O (2.5 µM) | 0
COc1cc(N2CCOCC2)ccc1Nc1ncc(Cl)c(Nc2ccccc2NS(C)(=O)=O)n1 (2.5 µM) | 0
Cn1cnc([N+](=O)[O-])c1C[N+](C)(C)C/C=C/C(=O)Nc1cc2c(Nc3ccc(Cl)c(Br)c3)ncnc2cn1 [Tarloxotinib (bromide)] (10 µM) | 0
O=C(Nc1cccc(C(F)(F)F)c1)c1cccc2cc(Oc3cc(CO)ncn3)ccc12 (10 µM) | 0
Oc1ccc(/C=C/c2cc(O)cc(O)c2)cc1 [Resveratrol] (10 µM) | 0
O=c1[nH]c(C2CCCN2)nc2c1oc1ccc(Cl)cc12 (stereo not drawn) [XL413 (hydrochloride)] (10 µM) | 0
CN(c1ccc(NC(=O)Nc2ccc(OC(F)(F)F)cc2)cc1)c1ccnc(Nc2cccc(S(N)(=O)=O)c2)n1 (2.5 µM) | 0

(continued)

Compound | number of time points
COc1cc2ncnc(-n3nc(-c4ccccn4)nc3N)c2cc1OC (10 µM) | 0
CNc1nc(Nc2ccc(C(=O)N3CCOCC3)cc2OC)ncc1Cl (2.5 µM) | 0
CC(C)S(=O)(=O)c1ccc2nccc(Nc3ccc4scnc4c3)c2c1 (10 µM) | 0
CC(C)(O)[C@H]1CC[C@H](Nc2ccc3ncc(-c4cccc(C(F)(F)F)c4)n3n2)CC1 (10 µM) | 0
CCN(CC)c1ccc2cc(-c3nc4cc(C)ccc4o3)c(=O)oc2c1 (10 µM) | 0
CN(C)S(=O)(=O)c1ccc2c(c1)/C(=C/c1cc3c([nH]1)CCCC3)C(=O)N2 (2.5 µM) | 0
C=CC(=O)Nc1cc(Nc2nccc(-n3cc(CN(C)C)c(-c4ccccc4)n3)n2)c(OC)cc1N1CCOCC1 [Lazertinib] (10 µM) | 0
Cc1ccc2c(Nc3cccc(Cl)c3F)nccc2c1NC(=O)c1csc2c(N)ncnc12 [Belvarafenib] (10 µM) | 0
Oc1cc(O)c2c(c1)OC1(c3ccc(O)c(O)c3)Oc3cc(O)c4c(c3C2C1O)OC(c1ccc(O)c(O)c1)C(O)C4 (stereo not drawn) [Procyanidin A1] (10 µM) | 0
c1ccc(-c2nc3c(c(-n4ccc5cnccc54)n2)CCC3)nc1 (10 µM) | 0
Cc1cc(C)nc(NS(=O)(=O)c2ccc(NC(=S)NC(=O)COc3ccc(Br)cc3Cl)cc2)n1 (2.5 µM) | 0
Cc1ccc(NC(=O)c2ccc(CN(CCN(C)C)C(=O)c3cccnc3)cc2)cc1Nc1nccc(-c2cccnc2)n1 [PDGFRα kinase inhibitor 1] (10 µM) | 0
C[C@H](Nc1ncnc2[nH]cnc12)c1cc2ccc(F)cc2nc1-c1ccccn1 (10 µM) | 0
CN(C)CCC=C1c2ccccc2CCc2ccccc21 [Amitriptyline (hydrochloride)] (2.5 µM) | 0
O=C1/C(=C\c2ccc(Cl)cc2)C=C(c2ccccc2)N1c1ccc(O)cc1 (2.5 µM) | 0
C[C@@H]1CCNC(=O)c2cc3ccc(C(=O)Nc4nc5ccccc5n4CCCN(C)C)cc3n21 (10 µM) | 0
